Results published in PubChem BioAssay AID2685 (National Center for Advancing Translational Sciences (NCATS), 2010).
The list shows a part of the results. These are further read-outs of the screen, such as a control signal, another cell line or another target. No call is given for them. Most of these compounds were active or inconclusive in the main read-out, so they are no random draw. Potencies come from curve fits of mixed quality, noted in brackets.

Assay: qHTS Assay for Lipid Storage Modulators in Drosophila S3 Cells;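 for cell number change: cells counted by Cell Tracker Red CMTPX staining in the red channel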
Details: BODIPY lipid droplet fluorescence, 18-24 h; for cell number change: measured here: cell count max response, cells fed with added oleic acid
Summary of the method: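 Drosophila S3 cells loaded with oleic acid (400 uM, as added) and compounds at several concentrations; lipid droplets imaged by 488-nm laser-scanning cytometry, 500–530 nm intensity and object ratio to cell channel. Percent activity normalized to 20 uM Triacsin C.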

[1] = measured here: lipid fluorescence (Fed channel) AC50, cells fed with added oleic acid
[2] = measured here: cell number channel AC50, cells fed with added oleic acid

SMILES	cell number change	AC50 [1]	AC50 [2]
Cc1cccc(Nc2nnc(SC(C)C(=O)NC3CC3)s2)c1 (centres undefined)	-13.8%		
O=C(Nc1ccc2c(c1)CCC2)c1cccc(S(=O)(=O)Nc2ccccc2Cl)c1	15.6%	14.6 µM [rising, partial curve]	
COc1cccc(C(=O)OCC(=O)N2CCc3ccccc32)c1OC	27.3%		
CC(=O)Nc1ccc(NC(=O)c2ccccc2N(Cc2ccccc2)S(C)(=O)=O)cc1	-18.5%	4.61 µM [falling, single point]	
CC(C)(C)c1ccc(CSc2nnc(-c3ccccn3)n2Cc2ccco2)cc1	-78.3%		18.4 µM [falling, partial curve]
COC(=O)Cn1cnc2c(nnn2Cc2ccc(Cl)cc2)c1=O	16.1%		
O=C(NCc1ccccc1)c1ccc2c(=O)n(CCCN3CCCC3=O)c(=S)[nH]c2c1	17%		0.326 µM [rising, full curve, poor fit]
Cc1sc(NC(=O)CS(=O)(=O)c2ccccc2)c(C(N)=O)c1C	24%	0.411 µM [rising, full curve, poor fit]	0.651 µM [rising, full curve, poor fit]
CC(C)c1ccc(N2C(=NC(=O)C3CCCO3)SC3CS(=O)(=O)CC32)cc1 (centres undefined)	-6.93%		0.651 µM [rising, single point]
COc1ccc(C2CC(C(F)(F)F)n3ncc(C(=O)NCC4CCCO4)c3N2)cc1OC (centres undefined)	9.01%		0.731 µM [rising, single point]
COc1ccc(CCNC(=O)CSc2nnc(CNC(=O)c3ccccc3F)o2)cc1OC		1.64 µM [rising, partial curve, poor fit]	
COc1ccc(-n2cnc3cc(C(=O)NCC4CCCO4)ccc32)cc1 (centres undefined)	13.1%		
CCCCn1c(NC(=O)c2ccccc2)c(C#N)c2nc3ccccc3nc21	-52.9%	29.1 µM [falling, single point]	18.4 µM [falling, partial curve, poor fit]
COc1ccc(C(=O)N2CCCC(C(=O)N3CCCCCC3)C2)cc1 (centres undefined)		6.51 µM [rising, single point]	
COc1ccc(CCNc2ccc(S(=O)(=O)N3CCCC3)cc2[N+](=O)[O-])cc1		2.06 µM [falling, partial curve]	4.61 µM [rising, single point]
CC(C)(c1ccccc1)c1ccc(OCc2ccc(C(=O)O)o2)cc1	-8.48%		
Fc1cccc(Cl)c1Cn1nnc2c(N3CCC4(CC3)OCCO4)ncnc21	52.1%		1.03 µM [rising, full curve]
CCOC(=O)c1ccc(NC(=O)C2C3CCC(C3)C2C(=O)O)cc1 (centres undefined)	46.7%	29.1 µM [rising, single point]	9.2 µM [rising, single point]
CC(=O)Nc1cccc(NC(=O)CSc2ncc(C(=O)Nc3ccc(F)cc3)c(=O)n2C)c1	394%		18.4 µM [rising, partial curve]
COc1ccc(NC(=O)CN(C)C(=O)CCc2ccccc2)cc1	16%	6.51 µM [falling, single point]	

SMILES	cell number change	AC50 [1]	AC50 [2]
CCOC(=O)N1CCN(C2=NC3(CCCCC3)C(C#N)C(=O)N2)CC1 (centres undefined)	-1.33%	0.206 µM [falling, full curve]	
COc1ccc([C@H]2CC(=O)C=C(c3ccccc3Oc3ccccc3)C2)cc1	15.8%		
O=CNC(Cc1ccccc1)C(=O)O (centres undefined)	-12.1%		
COc1ccccc1NC(=S)N1CCN(C(=O)c2ccco2)CC1	23.8%	29.1 µM [rising, single point]	
Cc1cc(Oc2ccc(OCC(N)=O)nn2)nc(Cl)n1	-31.4%		29.1 µM [falling, single point]
O=C(N/N=C/c1ccncc1)NC1CCCCC1		0.461 µM [rising, partial curve]	0.461 µM [rising, partial curve]
COc1cc2c(cc1OC)C(c1cccc([N+](=O)[O-])c1)=NCC2	-2.75%	29.1 µM [falling, single point]	
CCn1c(SCC(=O)NNC(=O)c2ccc(C)cc2)nnc1C(C)C	-13.2%		
Nc1nc(OCC(F)(F)F)cc(Oc2ccccc2F)n1	-39.8%	0.366 µM [falling, full curve, poor fit]	32.6 µM [falling, partial curve, poor fit]
Cc1noc(C)c1S(=O)(=O)N1CCN(C(c2ccccc2)c2ccc(Cl)cc2)CC1 (centres undefined)	46.3%	0.0651 µM [falling, single point]	23.1 µM [rising, single point]
COc1cccc(-c2sc3ccc(OC)cc3c2-c2ccc(O)cc2)c1	-57.2%	25.9 µM [falling, single point]	8.2 µM [falling, single point]
Cc1ccccc1CSCC(=O)NC1CCCC1	-21.1%	29.1 µM [falling, single point]	
COc1cc2nc(CC(C)C)n(NC(=O)c3ccccc3Br)c(=O)c2cc1OC	-45.8%	9.2 µM [falling, partial curve, poor fit]	16.4 µM [falling, partial curve]
CCc1cccc(C)c1NC(=O)C1CCN(c2nn3c(=O)cc(C)nc3s2)CC1	10.6%	6.51 µM [falling, partial curve]	
CN1C(=O)C2(c3ccccc31)N(C)CC(c1ccccn1)C21SC(=S)N(Cc2ccco2)C1=O (centres undefined)	-18.2%	6.51 µM [falling, single point]	
COc1ccccc1N1CCN(CC(O)COCc2cccs2)CC1 (centres undefined)	-5.81%		
COc1ccc(-c2cc(=O)[nH]c3ccccc23)cc1	-2.89%	11.6 µM [rising, partial curve]	
O=C(N=C1SC2CS(=O)(=O)CC2N1CCc1ccccc1)C1CC1 (centres undefined)	-8.4%	20.6 µM [rising, single point]	
O=c1[nH]nc(CNc2ccc(Cl)cc2Cl)c2ccccc12	19.5%	29.1 µM [rising, single point]	

Three entries already listed, ordered by formula weight, smallest number first:
SMILES	cell number change	AC50 [1]	AC50 [2]
COc1ccccc1NC(=S)N1CCN(C(=O)c2ccco2)CC1	23.8%	29.1 µM [rising, single point]	
CCn1c(SCC(=O)NNC(=O)c2ccc(C)cc2)nnc1C(C)C	-13.2%		
COc1cc2nc(CC(C)C)n(NC(=O)c3ccccc3Br)c(=O)c2cc1OC	-45.8%	9.2 µM [falling, partial curve, poor fit]	16.4 µM [falling, partial curve]
